PubChem BioAssay AID1671195, Yale University – 2021
Aim: 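Regulators of LDL receptor activity judged by labelled LDL uptake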 (primary screen). Cells: human Huh7 hepatoma cells. Reagents: siRNA pool against human genes, 18 nM. Duration: about 2 to 2.5 days of knockdown, then 8 h LDL uptake. Treatment: DiI-labelled LDL at 30 µg/ml for 8 h, in lipoprotein-deficient serum medium. Detection: 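Per-cell DiI-LDL intensity by automated imaging; well means scaled to the plate median and given as a robust z-score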. Direction: robust z-score: higher = more LDL uptake after knockdown. Rule for the call: 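Active when two or more replicates show a robust z-score above 2 or below -2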.
In all, the deposit lists about 22,000 reagents; shown is an unselected part. Over the whole deposit, about 1,510 (6.9%) got an active call. 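Active includes knockdowns raising or lowering LDL uptake; positive z-scores mean more uptake, negative mean less.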

gene	PubChem SID	robust z-score, replicate 1	robust z-score, replicate 2	robust z-score, replicate 3	outcome
RTP3	SID442895533	-0.565	0.243	-0.214	inactive
PTGS1	SID442888392	2.07	0.143	-0.0249	inactive
EPHB3	SID442895736	-0.194	-0.0444	-0.365	inactive
ZNF639	SID442892192	0.363	0.00108	0.231	inactive
AQP8	SID442886929	1.05	0.536	1.49	inactive
NUMB	SID442890580	0.214	0.73	0.246	inactive
NUMB	SID442891514	1.12	-0.635	0.351	inactive
TOP3A	SID442889464	-0.175	1.08	0.755	inactive
CSPG4	SID442885482	1.53	1.64	1.32	inactive
ZNF416	SID442901518	-1	-0.401	-1.33	inactive
SUN5	SID442891522	0.678	0.336	-0.186	inactive
GPRIN1	SID442903644	-0.356	-2.04	-1.65	inactive
LINC02783	SID442885752	1.28	1.31	1.56	inactive
AFAP1L1	SID442897605	-0.65	-0.522	-0.0399	inactive
IFT46	SID442889048	0.469	-0.0278	1.42	inactive
PRKAB1	SID442887844	0.794	0.91	0.789	inactive
HPF1	SID442893322	-0.312	0.219	0.282	inactive
PCSK4	SID442891012	0.892	-0.16	0.291	inactive
CABP5	SID442889997	0.249	0.619	0.561	inactive
SARS2	SID442900036	-0.904	-0.919	-0.284	inactive
SLC25A48	SID442888670	0.919	0.00428	1.12	inactive
TRAPPC11	SID442892183	0.408	0.0271	0.163	inactive
EZHIP	SID442898500	-0.432	-0.448	-0.64	inactive
ARF1	SID442896298	-0.794	0.2	-0.178	inactive
LOC401490 (retired record)	SID442888967	1.27	0.226	0.403	inactive
GAB1	SID442888492	1.19	0.327	0.616	inactive
MIA2	SID442891996	0.393	0.371	-0.0993	inactive
MIA2	SID442897805	-0.61	-0.627	-0.0456	inactive
LIMS1	SID442886376	1.77	1.22	0.545	inactive
ANKRD40CL	SID442890176	0.359	2.06	-1.06	inactive
OR1N2	SID442903695	-1.16	-1.01	-1.91	inactive
RNASE1	SID442893075	-0.0926	0.157	0.208	inactive
SLC19A3	SID442902669	-0.86	-1.46	-1.05	inactive
KRTAP19-6	SID442886321	1.12	1.07	1.38	inactive
SMIM43	SID442883719	2.24	3.18	1.82	active
OLA1	SID442886449	0.352	2.22	0.906	inactive
MEIOC	SID442898950	-0.709	-0.382	-0.585	inactive
LINC01116	SID442901146	-0.861	-0.843	-0.866	inactive
CNEP1R1	SID442887230	0.829	1.26	0.783	inactive
KEAP1	SID442884909	1.94	1.94	1.49	inactive
OGA	SID442897286	-0.579	0.522	-1.05	inactive
LYPD3	SID442887015	0.551	1.83	0.633	inactive
PITPNC1	SID442902252	-0.445	-1.75	-0.917	inactive
SELENOS	SID442897807	0.434	-1.94	0.218	inactive
PPP1R3A	SID442888320	1.29	-0.0787	1.02	inactive
HSPE1	SID442892333	0.205	0.262	0.0738	inactive
LOC728148	SID442903267	-0.837	-1.59	-1.35	inactive
S1PR5	SID442903086	-1.4	-1.03	-1.21	inactive
LOC442602 (retired record)	SID442884772	-1.02	-1.16	-4.11	inactive
MS4A6A	SID442902629	-0.78	-1.15	-1.42	inactive
EEF1D	SID442892621	-0.359	0.746	0.0457	inactive
SLC25A12	SID442896461	-0.376	-0.313	-0.139	inactive
SERF2	SID442898636	-0.577	-0.214	-0.773	inactive
ISLR2-AS1	SID442891873	0.0881	0.269	0.351	inactive
ZBTB3	SID442889102	1.13	0.535	0.178	inactive
LYPD5	SID442888580	0.201	0.806	1.08	inactive
SEC14L5	SID442887289	0.828	2.23	-0.222	inactive
LOC730236	SID442885182	1.39	1.53	1.98	inactive
ZNF787	SID442895545	0.309	-0.21	-0.639	inactive
KLRC2	SID442887818	0.53	0.626	1.35	inactive
MYL2	SID442889279	0.72	1.05	-0.0171	inactive
DCP1A	SID442903708	-1.29	-1.41	-1.4	inactive
SMPDL3B	SID442891348	-0.306	0.72	0.478	inactive
CNGA1	SID442900967	-1.18	-0.806	-0.508	inactive
PNKP	SID442899988	-0.944	-0.567	-0.575	inactive
CFAP90	SID442886598	1.37	0.75	1.22	inactive
LRRC37A11P	SID442886939	0.999	1.05	1.03	inactive
FOLH1	SID442893955	-0.222	0.324	-0.129	inactive
GTF2IRD1	SID442891065	0.64	0.232	0.136	inactive
PRR13	SID442890947	-0.682	0.845	0.885	inactive
LOC339583 (retired record)	SID442883447	2.74	2.78	3.12	active
FAM169A-AS1	SID442894376	-0.0935	-0.157	0.0774	inactive
SHF	SID442891091	0.642	0.486	-0.131	inactive
PPP2CA	SID442898725	0.00137	-1.26	-0.332	inactive
PRAME	SID442894287	0.533	-1.18	0.503	inactive
CAMSAP1	SID442891867	-0.146	1.19	-0.33	inactive
OTOL1	SID442888903	0.131	0.906	0.891	inactive
PLCB2	SID442901201	-1.42	-0.765	-0.413	inactive
CDR1	SID442888990	0.962	-0.87	1.8	inactive
ATP6V0E2	SID442889381	0.595	-0.121	1.23	inactive
LOC388295 (retired record)	SID442901165	-0.7	-0.965	-0.915	inactive
GNG7	SID442886280	0.963	1.2	1.45	inactive
WDR36	SID442900531	-0.705	-0.79	-0.822	inactive
EYS	SID442895013	-0.109	0.0457	-0.309	inactive
EYS	SID442899599	-0.169	-0.969	-0.788	inactive
LOC440788 (retired record)	SID442885921	1.24	1.18	1.56	inactive
INPP5B	SID442898559	-0.808	-0.498	-0.232	inactive

Individual results from the entries so far.
Entry of SARS2 [SID442900036] in “robust z-score, replicate 2”: -0.919
PTGS1 [SID442888392], robust z-score, replicate 3 = -0.0249
Entry of ZBTB3 [SID442889102] under “robust z-score, replicate 3”: 0.178
For “robust z-score, replicate 2”, ISLR2-AS1 [SID442891873] shows 0.269
For “outcome”, ANKRD40CL [SID442890176] reads inactive
Value of HSPE1 [SID442892333] under “robust z-score, replicate 2”: 0.262
